Laboratory results as given in the supplement of paper PMC10849652.
The list shows a part of the results.

Chains of the proteins cited; added tags and fusions are not shown. Lines headed by an entry give the natural chain unless they say otherwise; changes in a name come on top.
UniProt Q9UBQ5, whole entry, looked up: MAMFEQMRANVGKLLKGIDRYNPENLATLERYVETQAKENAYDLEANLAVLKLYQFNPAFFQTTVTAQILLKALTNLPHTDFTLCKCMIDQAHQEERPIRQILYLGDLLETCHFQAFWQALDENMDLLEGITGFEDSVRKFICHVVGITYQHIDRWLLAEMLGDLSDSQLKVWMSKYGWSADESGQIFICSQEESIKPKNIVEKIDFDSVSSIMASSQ
UniProt P54852: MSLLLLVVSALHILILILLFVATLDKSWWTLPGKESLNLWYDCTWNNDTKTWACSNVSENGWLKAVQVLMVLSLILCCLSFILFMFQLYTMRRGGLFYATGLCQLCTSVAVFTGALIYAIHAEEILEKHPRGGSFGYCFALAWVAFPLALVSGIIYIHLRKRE
UniProt Q8IZ81: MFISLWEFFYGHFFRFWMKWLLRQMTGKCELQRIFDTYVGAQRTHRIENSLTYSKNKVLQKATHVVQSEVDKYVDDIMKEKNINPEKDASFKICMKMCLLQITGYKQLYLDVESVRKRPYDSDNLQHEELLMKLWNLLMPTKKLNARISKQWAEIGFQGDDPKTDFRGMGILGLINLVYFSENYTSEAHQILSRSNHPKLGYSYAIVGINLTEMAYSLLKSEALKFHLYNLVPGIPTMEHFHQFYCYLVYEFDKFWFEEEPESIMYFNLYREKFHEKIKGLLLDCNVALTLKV
UniProt Q96RQ1: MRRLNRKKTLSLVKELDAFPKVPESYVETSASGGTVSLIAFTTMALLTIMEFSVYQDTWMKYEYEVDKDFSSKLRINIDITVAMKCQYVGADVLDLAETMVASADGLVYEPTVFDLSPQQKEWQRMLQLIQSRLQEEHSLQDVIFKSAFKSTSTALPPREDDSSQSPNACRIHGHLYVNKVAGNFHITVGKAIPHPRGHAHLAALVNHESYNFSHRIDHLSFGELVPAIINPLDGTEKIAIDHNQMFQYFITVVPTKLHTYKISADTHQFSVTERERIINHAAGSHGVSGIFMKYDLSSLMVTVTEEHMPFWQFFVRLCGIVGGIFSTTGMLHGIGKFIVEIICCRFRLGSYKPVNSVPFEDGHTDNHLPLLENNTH
UniProt Q6IA86: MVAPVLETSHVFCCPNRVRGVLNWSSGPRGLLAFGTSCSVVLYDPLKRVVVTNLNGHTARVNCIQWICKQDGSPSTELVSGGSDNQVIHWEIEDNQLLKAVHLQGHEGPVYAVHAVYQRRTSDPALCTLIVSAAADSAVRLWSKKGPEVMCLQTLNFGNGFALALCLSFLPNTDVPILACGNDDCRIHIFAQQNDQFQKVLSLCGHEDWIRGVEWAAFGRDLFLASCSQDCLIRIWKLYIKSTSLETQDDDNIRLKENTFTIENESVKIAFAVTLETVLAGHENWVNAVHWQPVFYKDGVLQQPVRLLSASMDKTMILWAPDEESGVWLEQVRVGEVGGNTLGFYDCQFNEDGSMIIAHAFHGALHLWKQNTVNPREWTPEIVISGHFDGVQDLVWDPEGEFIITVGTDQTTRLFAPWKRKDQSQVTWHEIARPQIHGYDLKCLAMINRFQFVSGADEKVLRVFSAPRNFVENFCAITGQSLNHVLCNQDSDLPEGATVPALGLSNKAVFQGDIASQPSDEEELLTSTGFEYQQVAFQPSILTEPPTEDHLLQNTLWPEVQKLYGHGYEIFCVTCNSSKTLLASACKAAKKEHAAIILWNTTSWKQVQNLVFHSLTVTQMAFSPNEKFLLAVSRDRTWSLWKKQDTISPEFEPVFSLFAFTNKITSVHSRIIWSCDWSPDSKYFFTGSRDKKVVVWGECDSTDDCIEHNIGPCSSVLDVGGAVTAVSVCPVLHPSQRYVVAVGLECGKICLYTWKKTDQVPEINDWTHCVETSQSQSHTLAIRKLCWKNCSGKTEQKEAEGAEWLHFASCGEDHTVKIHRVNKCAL
UniProt P42566: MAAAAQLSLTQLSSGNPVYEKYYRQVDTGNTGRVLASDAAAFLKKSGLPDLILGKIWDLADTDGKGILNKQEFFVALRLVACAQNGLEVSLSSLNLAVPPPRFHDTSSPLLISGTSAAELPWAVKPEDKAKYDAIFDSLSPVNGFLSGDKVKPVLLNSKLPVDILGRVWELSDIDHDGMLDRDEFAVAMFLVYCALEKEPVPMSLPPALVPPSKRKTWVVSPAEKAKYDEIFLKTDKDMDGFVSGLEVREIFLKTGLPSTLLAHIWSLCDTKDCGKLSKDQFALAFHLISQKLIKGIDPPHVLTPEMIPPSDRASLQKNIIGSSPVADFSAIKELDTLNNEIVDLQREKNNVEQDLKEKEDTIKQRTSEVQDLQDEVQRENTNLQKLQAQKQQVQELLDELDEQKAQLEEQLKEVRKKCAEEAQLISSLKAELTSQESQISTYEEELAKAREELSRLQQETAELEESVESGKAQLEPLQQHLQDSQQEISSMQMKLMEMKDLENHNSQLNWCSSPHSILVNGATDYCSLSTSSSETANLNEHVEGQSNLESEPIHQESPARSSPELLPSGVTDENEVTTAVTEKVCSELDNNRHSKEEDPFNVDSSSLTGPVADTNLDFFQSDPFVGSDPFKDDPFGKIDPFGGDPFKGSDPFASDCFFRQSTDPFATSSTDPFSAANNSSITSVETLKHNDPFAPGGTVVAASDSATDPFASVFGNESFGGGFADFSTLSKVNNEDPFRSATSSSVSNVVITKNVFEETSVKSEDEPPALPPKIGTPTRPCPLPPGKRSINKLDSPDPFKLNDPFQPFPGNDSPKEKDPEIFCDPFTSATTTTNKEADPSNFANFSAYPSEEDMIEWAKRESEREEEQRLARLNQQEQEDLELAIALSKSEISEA
UniProt Q8NFI3: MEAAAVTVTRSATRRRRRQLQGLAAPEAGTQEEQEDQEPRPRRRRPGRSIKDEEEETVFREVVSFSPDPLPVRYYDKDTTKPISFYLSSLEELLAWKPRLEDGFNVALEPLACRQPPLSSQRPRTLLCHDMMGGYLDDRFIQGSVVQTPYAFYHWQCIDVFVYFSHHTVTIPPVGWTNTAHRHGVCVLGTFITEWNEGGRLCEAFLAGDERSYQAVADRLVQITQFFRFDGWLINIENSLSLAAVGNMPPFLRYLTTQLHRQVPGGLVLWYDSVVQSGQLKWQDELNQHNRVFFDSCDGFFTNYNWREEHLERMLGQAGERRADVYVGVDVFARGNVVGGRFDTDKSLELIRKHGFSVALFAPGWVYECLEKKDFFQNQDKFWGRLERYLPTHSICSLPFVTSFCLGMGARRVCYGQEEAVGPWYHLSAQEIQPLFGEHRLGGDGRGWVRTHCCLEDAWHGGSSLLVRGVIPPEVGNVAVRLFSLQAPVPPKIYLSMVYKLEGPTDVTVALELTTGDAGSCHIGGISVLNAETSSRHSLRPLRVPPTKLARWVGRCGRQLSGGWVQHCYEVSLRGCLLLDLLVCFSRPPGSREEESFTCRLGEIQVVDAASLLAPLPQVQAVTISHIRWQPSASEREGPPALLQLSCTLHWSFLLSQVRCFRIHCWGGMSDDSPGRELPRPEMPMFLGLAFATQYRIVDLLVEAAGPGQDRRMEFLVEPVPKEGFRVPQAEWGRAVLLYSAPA
UniProt P55199: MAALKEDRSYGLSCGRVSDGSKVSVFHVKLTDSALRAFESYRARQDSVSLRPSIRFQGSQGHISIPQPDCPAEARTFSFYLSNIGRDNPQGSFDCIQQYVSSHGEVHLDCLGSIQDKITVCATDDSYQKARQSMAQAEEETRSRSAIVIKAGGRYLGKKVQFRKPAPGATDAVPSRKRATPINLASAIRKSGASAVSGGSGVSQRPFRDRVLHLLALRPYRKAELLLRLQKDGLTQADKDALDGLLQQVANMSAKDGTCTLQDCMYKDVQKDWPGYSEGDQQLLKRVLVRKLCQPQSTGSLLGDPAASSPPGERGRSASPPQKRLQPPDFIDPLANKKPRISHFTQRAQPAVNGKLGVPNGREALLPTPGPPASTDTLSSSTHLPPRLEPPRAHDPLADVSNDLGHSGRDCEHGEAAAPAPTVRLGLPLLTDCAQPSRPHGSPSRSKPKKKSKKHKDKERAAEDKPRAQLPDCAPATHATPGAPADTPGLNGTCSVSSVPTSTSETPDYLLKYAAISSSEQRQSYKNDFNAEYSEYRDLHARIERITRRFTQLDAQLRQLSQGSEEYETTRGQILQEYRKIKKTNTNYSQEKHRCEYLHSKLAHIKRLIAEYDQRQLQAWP
UniProt Q14152, whole entry, looked up: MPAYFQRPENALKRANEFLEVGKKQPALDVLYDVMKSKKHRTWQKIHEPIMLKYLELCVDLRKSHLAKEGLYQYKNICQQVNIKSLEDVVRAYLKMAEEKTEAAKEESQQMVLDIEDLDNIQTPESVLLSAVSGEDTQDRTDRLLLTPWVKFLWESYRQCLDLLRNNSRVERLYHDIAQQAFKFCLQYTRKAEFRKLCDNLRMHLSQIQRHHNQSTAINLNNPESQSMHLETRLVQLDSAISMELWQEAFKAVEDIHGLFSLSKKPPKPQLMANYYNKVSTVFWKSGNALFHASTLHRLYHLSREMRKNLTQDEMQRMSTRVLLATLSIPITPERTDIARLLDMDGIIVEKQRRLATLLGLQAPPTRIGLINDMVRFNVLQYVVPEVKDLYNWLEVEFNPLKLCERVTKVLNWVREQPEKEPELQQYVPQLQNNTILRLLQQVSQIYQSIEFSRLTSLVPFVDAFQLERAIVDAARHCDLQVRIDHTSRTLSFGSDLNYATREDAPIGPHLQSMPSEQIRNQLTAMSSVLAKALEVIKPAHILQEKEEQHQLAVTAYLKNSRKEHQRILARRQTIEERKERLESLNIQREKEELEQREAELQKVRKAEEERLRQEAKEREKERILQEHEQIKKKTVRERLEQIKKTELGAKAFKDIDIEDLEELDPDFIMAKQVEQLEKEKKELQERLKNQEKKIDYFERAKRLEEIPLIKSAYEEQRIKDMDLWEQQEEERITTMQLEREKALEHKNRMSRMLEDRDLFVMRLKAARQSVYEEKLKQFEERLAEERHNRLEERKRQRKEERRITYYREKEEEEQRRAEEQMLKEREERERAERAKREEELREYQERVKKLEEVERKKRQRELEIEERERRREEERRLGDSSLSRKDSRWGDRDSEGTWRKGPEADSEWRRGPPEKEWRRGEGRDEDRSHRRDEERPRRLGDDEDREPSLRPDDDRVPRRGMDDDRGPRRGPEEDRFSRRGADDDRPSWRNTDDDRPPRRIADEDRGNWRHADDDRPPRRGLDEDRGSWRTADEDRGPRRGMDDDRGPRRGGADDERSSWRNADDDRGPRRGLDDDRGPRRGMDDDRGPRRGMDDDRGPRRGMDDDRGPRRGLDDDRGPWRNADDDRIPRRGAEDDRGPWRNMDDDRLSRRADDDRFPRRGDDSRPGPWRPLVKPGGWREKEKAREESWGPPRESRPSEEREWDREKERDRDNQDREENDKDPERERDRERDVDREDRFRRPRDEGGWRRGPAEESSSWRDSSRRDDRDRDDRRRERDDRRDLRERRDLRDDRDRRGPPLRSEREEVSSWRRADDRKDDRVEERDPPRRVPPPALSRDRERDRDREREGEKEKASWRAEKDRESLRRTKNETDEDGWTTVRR
UniProt Q13541: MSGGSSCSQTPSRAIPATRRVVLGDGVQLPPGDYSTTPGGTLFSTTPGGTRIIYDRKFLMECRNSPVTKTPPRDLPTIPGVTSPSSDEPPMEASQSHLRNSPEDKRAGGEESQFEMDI
UniProt Q5NDL2: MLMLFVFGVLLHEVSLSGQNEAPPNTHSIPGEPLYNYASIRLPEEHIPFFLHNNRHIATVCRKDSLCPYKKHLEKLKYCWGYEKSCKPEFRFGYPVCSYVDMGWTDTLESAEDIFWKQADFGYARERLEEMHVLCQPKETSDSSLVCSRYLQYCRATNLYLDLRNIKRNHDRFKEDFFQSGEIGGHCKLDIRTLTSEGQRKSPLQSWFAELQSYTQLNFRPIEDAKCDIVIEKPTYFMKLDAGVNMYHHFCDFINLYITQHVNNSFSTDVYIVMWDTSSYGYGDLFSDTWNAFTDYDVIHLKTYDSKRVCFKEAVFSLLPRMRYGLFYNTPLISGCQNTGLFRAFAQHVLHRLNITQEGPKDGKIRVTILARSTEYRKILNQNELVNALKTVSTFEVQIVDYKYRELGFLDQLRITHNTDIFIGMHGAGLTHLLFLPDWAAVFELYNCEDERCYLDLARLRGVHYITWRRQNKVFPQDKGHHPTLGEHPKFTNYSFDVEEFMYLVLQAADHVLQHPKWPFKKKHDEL

What was measured:
Experiment in all cases: log2 fold change, soluble protein after heating vs DMSO (PISA); higher = thermal stabilisation; K562 lysate, 10 uM; active = over 0.2 and 3.5 SD of the protein, either way, in both replicates (recomputed)
erlotinib = compound: C#Cc1cccc(Nc2ncnc3cc(OCCOC)c(OCCOC)cc23)c1 [erlotinib]
Procedure, shortened: (§1)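 Quantification was by TMTpro 16plex LC-MS/MS with equalised channel sums, applied to the supernatant after 21,000xg for 90 min. Samples were crude K562 extract at 1 mg/mL protein in PBS pH 7.4 with 1 mM MgCl2, treated with 10 μM compound for 30 min, heated for 3 min across 48°C-58°C, pooled and brought to 0.5% NP-40 at 4°C. Values are log-two fold changes in thermal stability relative to solvent controls, from duplicates.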

[1] = compound: C/C(=N\NC(=O)C1=CC(=CC=C1)S(=O)(=O)N2CCOCC2)/C3=C(C=CC(=C3)Cl)O
Procedure, shortened: as §1

[2] = compound: C1=CC(=CC=C1C2=NC3=C(N2)C=C(C=C3)C(=O)N)OC4=CC=C(C=C4)Cl
Procedure, shortened: as §1

[3] = compound: C1=CC2=C(C=CC(=C2)/C=C\3/C(=O)NC(=NCC4=CC=CS4)S3)N=C1
Procedure, shortened: as §1

[4] = compound: C1=CC2=NC=CN=C2C=C1/C=C/3\C(=O)NC(=O)S3
Procedure, shortened: as §1

[5] = compound: C1=CC=C(C=C1)C2=NC(=C(N2)C3=CC=NC=C3)C4=CC(=C(C=C4)Cl)O
Procedure, shortened: as §1

[6] = compound: C1=CC=C2C(=C1)C3=NNC4=CC=CC(=C43)C2=O
Procedure, shortened: as §1

[7] = compound: C1CCN(C1)C(=O)NC2=CC=CC(=C2)NC3=NC=C(C(=N3)NCCC4=CN=CN4)Br
Procedure, shortened: as §1

[8] = compound: C1CN(CCC1(CC2=CC=C(C=C2)Cl)N)C3=NC=NC4=C3C=CN4
Procedure, shortened: as §1

IRAK-1-4 Inhibitor I = compound: C1COCCN1CCN2C3=CC=CC=C3N=C2NC(=O)C4=CC(=CC=C4)[N+](=O)[O-] [IRAK-1-4 Inhibitor I]
Procedure, shortened: as §1

ibrutinib = compound: C=CC(=O)N1CCC[C@@H](n2nc(-c3ccc(Oc4ccccc4)cc3)c3c(N)ncnc32)C1 [ibrutinib]
Procedure, shortened: as §1

[9] = compound: CC(=O)c1cnc2ccc(-c3cc(Cl)c(O)c(Cl)c3)nc2c1N[C@H]1CC[C@H](CN(C)C)CC1
Procedure, shortened: as §1

ralimetinib = compound: CC(C)(C)Cn1c(N)nc2ccc(-c3[nH]c(C(C)(C)C)nc3-c3ccc(F)cc3)nc21 [ralimetinib]
Procedure, shortened: as §1

[10] = compound: CC(C)(O)CC(=O)NCCn1ccc2ncnc(Nc3ccc(Oc4cccc(C(F)(F)F)c4)c(Cl)c3)c21
Procedure, shortened: as §1

[11] = compound: CC(C)C1=C2N=C(C=C(N2N=C1)NCC3=CC=CC=C3)NCCCCCCN
Procedure, shortened: as §1

[12] = compound: CC1=C(C(CC(=O)N1)C2=CC=C(C=C2)C(F)(F)F)C(=O)NC3=C(C=C4C(=C3)C=NN4)F
Procedure, shortened: as §1

[13] = compound: CC1=C(C2=C(C=C1)C(=O)C3=CC=CC=C3N2CCCN)C
Procedure, shortened: as §1

[14] = compound: CC1=C(C=C(C=C1)NC(=O)C2=CC(=CC=C2)C(C)(C)C#N)NC3=CC4=C(C=C3)N=CN(C4=O)C
Procedure, shortened: as §1

[15] = compound: CC1=C(C=C(C=C1)NC(=O)C2=CC(=CC=C2)N(C)C)NC(=O)C3=CC=C(C=C3)O
Procedure, shortened: as §1

[16] = compound: CC1=CC=C(C=C1)SC2=C3C=C(SC3=CN=C2)C(=O)N
Procedure, shortened: as §1

Measured: log2 fold change

EIF3K (UniProt Q9UBQ5)
inactive: erlotinib 0.029 | [1] 0.044 | [2] -0.024 | [3] 0.002 | [4] -0.052 | [5] -0.011 | [6] 0.018 | [7] 0.007 | [8] 0.014 | IRAK-1-4 Inhibitor I 0.017 | ibrutinib 0.004 | [9] -0.005 | ralimetinib -0.007 | [10] -0.017 | [11] -0.008 | [12] 0.016 | [13] 0.023 | [14] 0.012 | [15] 0.002 | [16] 0.031

EPB41L1 (UniProt Q9H4G0)
inactive: erlotinib -0.008 | [1] 0.115 | [2] 0.009 | [3] 0.021 | [4] 0.05 | [5] 0.016 | [6] -0.007 | [7] -0.066 | [8] -0.039 | IRAK-1-4 Inhibitor I 0.044 | ibrutinib 0.003 | [9] 0.03 | ralimetinib -0.006 | [10] -0.072 | [11] 0.003 | [12] 0.021 | [13] 0.038 | [14] -0.033 | [15] -0.005 | [16] 0.007

ERAP1 isoform 2 (UniProt Q9NZ08)
inactive: erlotinib 0.003 | [1] -0.017 | [2] 0.003 | [3] -0.007 | [4] -0.007 | [5] 0.002 | [6] -0.005 | [7] -0.017 | [8] 0.012 | IRAK-1-4 Inhibitor I 0.011 | ibrutinib -0.004 | [9] 0.003 | ralimetinib 0.001 | [10] -0.001 | [11] -0.011 | [12] 0.025 | [13] -0.015 | [14] 0 | [15] 0.009 | [16] 0.001

Retrieved one by one from above (2):
EIF3K (UniProt Q9UBQ5)
inactive: erlotinib 0.029 | [1] 0.044 | [2] -0.024 | [3] 0.002 | [4] -0.052 | [5] -0.011 | [6] 0.018 | [7] 0.007 | [8] 0.014 | IRAK-1-4 Inhibitor I 0.017 | ibrutinib 0.004 | [9] -0.005 | ralimetinib -0.007 | [10] -0.017 | [11] -0.008 | [12] 0.016 | [13] 0.023 | [14] 0.012 | [15] 0.002 | [16] 0.031

ERAP1 isoform 2 (UniProt Q9NZ08)
inactive: erlotinib 0.003 | [1] -0.017 | [2] 0.003 | [3] -0.007 | [4] -0.007 | [5] 0.002 | [6] -0.005 | [7] -0.017 | [8] 0.012 | IRAK-1-4 Inhibitor I 0.011 | ibrutinib -0.004 | [9] 0.003 | ralimetinib 0.001 | [10] -0.001 | [11] -0.011 | [12] 0.025 | [13] -0.015 | [14] 0 | [15] 0.009 | [16] 0.001

Next part.

EMP3 (UniProt P54852)
inactive: erlotinib 0.008 | [1] -0.015 | [2] 0.018 | [3] 0.017 | [4] 0.004 | [5] 0 | [6] 0.007 | [7] -0.002 | [8] 0.029 | IRAK-1-4 Inhibitor I 0.053 | ibrutinib 0.045 | [9] -0.012 | ralimetinib 0.088 | [10] -0.081 | [11] 0 | [12] 0.013 | [13] -0.003 | [14] 0.041 | [15] -0.036 | [16] -0.01

ELMOD2 (UniProt Q8IZ81)
inactive: erlotinib 0.005 | [1] 0.043 | [2] 0.033 | [3] -0.064 | [4] 0.043 | [5] -0.036 | [6] 0.021 | [7] -0.097 | [8] 0.049 | IRAK-1-4 Inhibitor I -0.031 | ibrutinib -0.025 | [9] -0.002 | ralimetinib 0.006 | [10] 0.007 | [11] 0.03 | [12] 0 | [13] 0.031 | [14] -0.003 | [15] -0.01 | [16] -0.004

ERGIC2 (UniProt Q96RQ1)
inactive: erlotinib 0.052 | [1] -0.082 | [2] -0.135 | [3] 0.031 | [4] -0.017 | [5] 0.019 | [6] -0.007 | [7] 0.046 | [8] 0.03 | IRAK-1-4 Inhibitor I 0.02 | ibrutinib 0.046 | [9] 0.043 | ralimetinib 0 | [10] -0.086 | [11] -0.041 | [12] -0.055 | [13] 0 | [14] 0.014 | [15] 0.086 | [16] 0.058

ELP2 isoform 6 (UniProt Q6IA86)
inactive: erlotinib 0.013 | [1] 0.008 | [2] 0.004 | [3] 0.002 | [4] -0.007 | [5] 0.004 | [6] -0.008 | [7] -0.01 | [8] -0.008 | IRAK-1-4 Inhibitor I 0.017 | ibrutinib 0.015 | [9] 0.006 | ralimetinib 0.019 | [10] 0 | [11] -0.028 | [12] -0.005 | [13] -0.016 | [14] 0.005 | [15] -0.012 | [16] 0.007

EMC2 (UniProt Q15006)
inactive: erlotinib -0.022 | [1] -0.065 | [2] 0.003 | [3] 0.042 | [4] 0.032 | [5] -0.015 | [6] -0.051 | [7] -0.044 | [8] 0.043 | IRAK-1-4 Inhibitor I -0.009 | ibrutinib -0.024 | [9] -0.003 | ralimetinib 0.032 | [10] -0.032 | [11] -0.08 | [12] 0.012 | [13] 0.012 | [14] -0.024 | [15] 0.018 | [16] -0.02

EPS15 (UniProt P42566)
inactive: erlotinib -0.006 | [1] 0.03 | [2] 0.026 | [3] -0.014 | [4] -0.004 | [5] 0.016 | [6] -0.026 | [7] -0.027 | [8] 0.02 | IRAK-1-4 Inhibitor I -0.001 | ibrutinib -0.002 | [9] -0.005 | ralimetinib -0.016 | [10] 0.005 | [11] -0.002 | [12] -0.01 | [13] -0.006 | [14] 0.002 | [15] 0.014 | [16] -0.013

ENGASE (UniProt Q8NFI3)
inactive: erlotinib 0.036 | [1] 0 | [2] 0.043 | [3] -0.069 | [4] 0.008 | [5] 0.002 | [6] -0.04 | [7] 0.009 | [8] 0.043 | IRAK-1-4 Inhibitor I 0.007 | ibrutinib 0.019 | [9] 0.019 | ralimetinib -0.02 | [10] 0.012 | [11] -0.02 | [12] -0.002 | [13] 0.012 | [14] -0.046 | [15] 0.067 | [16] 0

ELL (UniProt P55199)
inactive: erlotinib -0.03 | [1] -0.968 | [2] 0.052 | [3] -0.022 | [4] -0.05 | [5] -0.017 | [6] -0.065 | [7] -0.017 | [8] 0.033 | IRAK-1-4 Inhibitor I 0.012 | ibrutinib 0.01 | [9] -0.006 | ralimetinib 0.016 | [10] 0.003 | [11] 0.019 | [12] -0.075 | [13] -0.07 | [14] 0.006 | [15] 0.015 | [16] -0.002

EIF2D (UniProt P41214)
inactive: erlotinib 0.048 | [1] 0.019 | [2] -0.017 | [3] 0.054 | [4] 0.001 | [5] 0.008 | [6] -0.016 | [7] 0.025 | [8] 0.021 | IRAK-1-4 Inhibitor I -0.023 | ibrutinib 0.011 | [9] -0.017 | ralimetinib 0.018 | [10] 0.026 | [11] 0.03 | [12] -0.005 | [13] -0.03 | [14] -0.004 | [15] 0.016 | [16] 0.01

EIF3A (UniProt Q14152)
inactive: erlotinib -0.004 | [1] 0.04 | [2] -0.045 | [3] 0.028 | [4] 0.027 | [5] -0.008 | [6] -0.011 | [7] -0.002 | [8] 0.013 | IRAK-1-4 Inhibitor I -0.008 | ibrutinib 0.01 | [9] 0.014 | ralimetinib 0.02 | [10] 0.019 | [11] -0.003 | [12] -0.013 | [13] -0.021 | [14] -0.039 | [15] 0.044 | [16] 0.023

EIF4G1 (UniProt Q04637)
inactive: erlotinib 0.005 | [1] -0.002 | [2] 0.003 | [3] -0.002 | [4] 0.005 | [5] 0.003 | [6] -0.007 | [7] -0.002 | [8] -0.003 | IRAK-1-4 Inhibitor I 0 | ibrutinib 0.001 | [9] 0.017 | ralimetinib -0.001 | [10] -0.016 | [11] -0.009 | [12] -0.005 | [13] 0.027 | [14] -0.004 | [15] 0.009 | [16] -0.004

EIF4EBP1 (UniProt Q13541)
inactive: erlotinib 0.018 | [1] 0.123 | [2] -0.066 | [3] -0.001 | [4] -0.036 | [5] 0.015 | [6] -0.058 | [7] 0.039 | [8] 0.011 | IRAK-1-4 Inhibitor I -0.02 | ibrutinib -0.016 | [9] -0.041 | ralimetinib -0.037 | [10] 0.011 | [11] -0.007 | [12] -0.059 | [13] -0.02 | [14] 0.056 | [15] 0.006 | [16] -0.002

EOGT (UniProt Q5NDL2)
inactive: erlotinib -0.028 | [1] -0.057 | [2] -0.023 | [3] -0.086 | [4] -0.022 | [5] -0.025 | [6] -0.045 | [7] -0.005 | [8] 0.043 | IRAK-1-4 Inhibitor I 0.045 | ibrutinib 0.018 | [9] -0.005 | ralimetinib 0.113 | [10] -0.041 | [11] -0.036 | [12] -0.033 | [13] -0.091 | [14] -0.049 | [15] -0.003 | [16] -0.015
